Article PMC10703789
No constants are given. Whether binding was seen depends on the method and setting. Binding seen in cells or lysates may run through a third protein. Binding calls can cover weak binding; strength is not graded here.

B1: mouse SDHB (CII) (protein, UniProt Q9CQA3 31-282)
chain: AQTAAAAAPRIKKFAIYRWDPDKTGDKPRMQTYEVDLNKCGPMVLDALIKIKNEVDSTLTFRRSCREGICGSCAMNINGGNTLACTRRIDTDLSKVSKIYPLPHMYVIKDLVPDLSNFYAQYKSIEPYLKKKDESQEGKQQYLQSIEDREKLDGLYECILCACCSTSCPSYWWNGDKYLGPAVLMQAYRWMIDSRDDFTEERLAKLQDPFSVYRCHTIMNCTQTCPKGLNPGKAIAEIKKMMATYKEKRALA
B2: SDHB (complex II) (protein, UniProt P21912 29-280)
chain: AQTAAATAPRIKKFAIYRWDPDKAGDKPHMQTYEVDLNKCGPMVLDALIKIKNEVDSTLTFRRSCREGICGSCAMNINGGNTLACTRRIDTNLNKVSKIYPLPHMYVIKDLVPDLSNFYAQYKSIEPYLKKKDESQEGKQQYLQSIEEREKLDGLYECILCACCSTSCPSYWWNGDKYLGPAVLMQAYRWMIDSRDDFTEERLAKLQDPFSLYRCHTIMNCTRTCPKGLNPGKAIAEIKKMMATYKEKKASV

What was measured:
[1] = biological target: mouse frataxin (mouse (endogenous in primary cortical neurons)); assay: proximity ligation; in situ Duolink PLA in fixed mouse primary cortical neurons; anti-FXN with anti-MT-ND1, anti-SDHB or anti-UQCRFS1
[2] = biological target: human frataxin (human (endogenous in hiPSC-derived CMs and NPCs, SH-SY5Y, LCLs)); assay: proximity ligation; in situ Duolink PLA in fixed, permeabilised hiPSC-derived neural progenitor cells of a healthy control (fewer dots in FRDA patient's NPCs); anti-FXN with anti-MT-ND1, anti-SDHB or anti-UQCRFS1; signal at distances <40 nm
[3] = biological target: human frataxin (human (endogenous in hiPSC-derived CMs and NPCs, SH-SY5Y, LCLs)); assay: proximity ligation; in situ Duolink PLA in fixed, permeabilised hiPSC-derived cardiomyocytes of a healthy control (fewer dots in FRDA patient's CMs); anti-FXN with anti-MT-ND1, anti-SDHB or anti-UQCRFS1; signal at distances <40 nm
[4] = biological target: human frataxin (human (endogenous in hiPSC-derived CMs and NPCs, SH-SY5Y, LCLs)); assay: proximity ligation; in situ Duolink PLA in fixed retinoic acid-differentiated SH-SY5Y neuroblastoma cells; anti-FXN with anti-MT-ND1, anti-SDHB or anti-UQCRFS1

Binder	binding [1]	binding [2]	binding [3]	binding [4]
B1	binds	–	–	–
B2	–	binds	binds	binds
